Experimental data: PubChem BioAssay AID2685 (National Center for Advancing Translational Sciences (NCATS), 2010)
Some of the results follow. Shown are side measurements of this screen, not its main read-out; they come without a call. Most of these compounds were active or inconclusive in the main read-out, so they are no random draw. The note in brackets gives the kind of curve behind each potency; many fits are weak.

Test: qHTS Assay for Lipid Storage Modulators in Drosophila S3 Cells;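 on cell number change: cells counted by Cell Tracker Red CMTPX staining in the red channel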
Conditions: BODIPY lipid droplet fluorescence, 18-24 h; for cell number change: measured here: cell count max response, cells fed with added oleic acid
How it was run: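 Drosophila S3 cells loaded with oleic acid (400 uM, as added) and compounds at several concentrations; lipid droplets imaged by 488-nm laser-scanning cytometry, 500–530 nm intensity and object ratio to cell channel. Percent activity normalized to 20 uM Triacsin C.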

[1] = measured here: cell number channel AC50, cells fed with added oleic acid
[2] = measured here: lipid fluorescence (Fed channel) AC50, cells fed with added oleic acid

SMILES	cell number change [%]	AC50 [1]	AC50 [2]
Cc1ccccc1CCNCc1ccc(Br)cc1	-57.3	29.1 µM [falling, single point]	29.1 µM [falling, single point]
CCCCCCN1CCN(c2ccccc2Cl)CC1	-12		
COc1ccc(-n2nc(C(=O)NCC(=O)N3CCC4(CC3)OCCO4)c3ccccc3c2=O)cc1OC	-15.9		0.92 µM [falling, full curve]
CN1CC(C(=O)c2cccc(C(F)(F)F)c2)C(c2ccc(Cl)cc2)C1 (configuration not stated)	-58.3	20.6 µM [falling, partial curve]	23.1 µM [falling, partial curve]
COC(=O)C1=C(c2ccc(F)cc2OCc2ccccc2)C[C@@H]2CC[C@H]1N2C(=O)NCc1ccccc1C(F)(F)F	-4.05	0.82 µM [falling, full curve, poor fit]	1.84 µM [falling, partial curve, poor fit]
CCCCn1c(O)c(C(CC)=NCc2cccnc2)c(=O)[nH]c1=O			25.9 µM [falling, partial curve, poor fit]
COc1cc(O)cc2c1C(=O)O[C@@H](C)CCCC(=O)CCCCC2	-29.4		
COc1ccc(N2C(=O)NC(=O)/C(=C\c3cn(C)c4ccccc34)C2=O)cc1	-4.32		
C/C1=C\[C@@H](C)C/C=C/[C@H]2[C@@H]3O[C@]3(C)[C@@H](C)[C@H]3[C@H](Cc4c[nH]c5ccccc45)NC(=O)[C@]32C(=O)/C=C/C(=O)[C@@H]1O	-62.6	29.1 µM [falling, single point]	23.1 µM [falling, single point]
CN(C)C1(CNC(=O)c2ccc(NS(=O)(=O)c3ccc(Cl)c(Cl)c3)cc2)CCCCC1	-4.07		0.146 µM [rising, full curve, poor fit]
O=c1[nH]c(=S)n(Cc2ccc(F)cc2)c(O)c1/C=N/N1CCCCC1	-8.19	1.3 µM [falling, partial curve, poor fit]	18.4 µM [rising, single point]
O=c1[nH]c2ccccc2n1CCCN1CCC(n2c(=O)[nH]c3cc(Cl)ccc32)CC1	11.8		16.4 µM [rising, single point]
CCN(CC)c1ccc(/C=N/c2sc3c(c2C#N)C2CCN3CC2)c(O)c1	-89	23.1 µM [falling, partial curve]	4.61 µM [falling, full curve]
O=c1[nH]c(=O)n(-c2cccc(Cl)c2)c(O)c1C=NCCCN1CCOCC1	-6.55		
CCOC(=O)c1ccc(NC(=O)c2c(O)[nH]c(=O)[nH]c2=O)cc1	-98.5	20.6 µM [falling, single point]	16.4 µM [falling, partial curve, poor fit]
Cc1ccc(NC(=O)CN2C(=O)CN=C(c3ccccc3)c3cc(Cl)ccc32)cc1	-47.4	11.6 µM [falling, partial curve, poor fit]	9.2 µM [falling, partial curve]
CN1C2CCC1/C(=C/c1ccccn1)C(=O)/C2=C\c1ccccn1	-80.2	16.4 µM [falling, partial curve]	1.46 µM [falling, full curve]
COC(=O)C1=C(c2ccc(OC(F)(F)F)cc2)C[C@@H]2CC[C@H]1N2C(=O)N1CCCC1	-13.3	2.59 µM [falling, single point]	6.51 µM [falling, single point]
CCOC(=O)c1ccc(N=Cc2c(O)n(-c3ccccc3F)c(=S)[nH]c2=O)cc1	-10		29.1 µM [rising, single point]
CN(C)c1ccc(/C=C/c2cc[n+](C)c3ccccc23)cc1	-85.8	7.31 µM [falling, partial curve]	16.4 µM [falling, partial curve]
CC(C)[C@H]1C(=O)O[C@H](C(C)C)C(=O)N(C)[C@@H](C(C)C)C(=O)O[C@H](C(C)C)C(=O)N(C)[C@@H](C(C)C)C(=O)O[C@H](C(C)C)C(=O)N1C			5.17 µM [falling, partial curve, poor fit]
CC(C)n1c(=O)c(C=Nc2cccc([N+](=O)[O-])c2)c(O)n(CCc2ccccc2)c1=O	26.4		10.3 µM [rising, single point]
CC1=NN(Cc2c[nH]c3ccccc23)C(C)(C)C1	-33.1	11.6 µM [falling, partial curve, poor fit]	
CC(=O)Nc1ccc(S(=O)(=O)NC(CC(=O)N2CCC3(CC2)OCCO3)C(C)C)cc1 (configuration not stated)	-17.6		0.651 µM [falling, single point]
CCOC(C(=O)OCCC[N+](C)(CC)CC)(c1ccccc1)c1ccccc1	-14.6		0.58 µM [falling, full curve]
O=C(O)CCn1cc(C=C2C(=O)NC(=O)NC2=O)c(-c2ccc(Br)cc2)n1	-6.75		2.91 µM [falling, single point]

SMILES	cell number change [%]	AC50 [1]	AC50 [2]
CCn1c(O)c(C=NCc2cccs2)c(=O)[nH]c1=O	-24.6	0.82 µM [falling, full curve, poor fit]	6.51 µM [falling, partial curve]
CCC(C)NC(=O)CN1C(=O)CN=C(c2ccccc2)c2ccccc21 (configuration not stated)	17.6		6.51 µM [rising, single point]
CN(C)P(=O)(C(Cl)=C(N1CCCCC1)N1CCCCC1)N(C)C	2.09		1.16 µM [rising, full curve]
C=CCn1c(O)c(C(CC)=NC2CC2)c(=O)[nH]c1=O	-8.14		4.61 µM [falling, partial curve, poor fit]
CCOc1ccc(N=Cc2c(O)n(-c3ccc(C)c(C)c3)c(=O)[nH]c2=O)cc1	16.7		7.31 µM [falling, partial curve, poor fit]
O=[N+]([O-])c1ccc(NCc2ccccc2)c2nonc12	-85.7	32.6 µM [falling, partial curve, poor fit]	
COc1cccc(C(=O)C2CCCN(Cc3cccc4c3OCO4)C2)c1 (configuration not stated)	2.22		32.6 µM [rising, single point]
C#C[C@]1(O)CC[C@H]2[C@@H]3CCC4=CC(=O)CC[C@]4(C)[C@H]3CC[C@@]21C	32.3	29.1 µM [rising, single point]	29.1 µM [falling, single point]
O=C1NC(=O)N(c2ccccc2)C(=O)/C1=C\C=C\c1ccccc1	-48	3.26 µM [falling, full curve]	
O=C(Nc1cccc(Cl)c1)OC1CN2CCC1CC2 (configuration not stated)	-50.5	6.51 µM [falling, full curve]	5.8 µM [falling, full curve]
CCCCn1c(O)c(C(C)=NCCCn2ccnc2)c(=O)[nH]c1=O	9.42		1.84 µM [rising, partial curve]
c1ccc2sc(N3CCNCC3)nc2c1	-10.6		29.1 µM [falling, single point]
Cc1nc2ccccc2n1C1CCN(Cc2nnnn2CCc2ccccc2)CC1	-11.5		3.26 µM [rising, single point]
CC(=O)OC(C)(C)/C=C/C(=O)[C@](C)(O)[C@H]1[C@H](O)C[C@@]2(C)[C@@H]3CC=C4[C@H](C[C@H](O)C(=O)C4(C)C)[C@]3(C)C(=O)C[C@]12C	-21.4	0.103 µM [falling, full curve, poor fit]	0.0206 µM [falling, full curve, poor fit]
CC12CCCCC1=NC(c1ccc(Br)cc1)N2O (configuration not stated)	5.21		29.1 µM [rising, single point]
CC(/C=C(\C)Nc1ccccc1)=Nc1ccccc1	-90.7	29.1 µM [falling, single point]	
COc1ccc(Cn2c(O)c(C=NCCN3CCOCC3)c(=O)[nH]c2=O)cc1	0.201		3.66 µM [falling, single point]
C=C1C(=O)O[C@@H]2C[C@@H](C)[C@@H]3C4OC4C(=O)[C@@]3(C)[C@@H](O)[C@H]12 (some centres not stated)	-72.6	23.1 µM [falling, partial curve]	25.9 µM [falling, partial curve]
COC(=O)C1=C(c2ccccc2OCc2ccccc2)C[C@@H]2CC[C@H]1N2C(=O)NCc1cccc(C(F)(F)F)c1	-12.9		14.6 µM [falling, single point]
Cc1ccc(C(=O)COC(=O)Cc2ccccc2)cc1	33.8	6.31 µM [rising, partial curve, poor fit]	
O=C1NC(=O)C2=Cc3ccc(O)cc3OC2(O)N1 (configuration not stated)	62.3	29.1 µM [rising, single point]	18.4 µM [rising, partial curve]
CC(NC1=NCCS1)c1ccccc1 (configuration not stated)	8.82		
Oc1ccc(C[C@H]2NCCc3cc(O)c(O)cc32)cc1O	11.7		
O=C1C(Cl)=CC(=Nc2ccc(O)cc2)C=C1Cl	-42.7	16.4 µM [falling, partial curve]	0.651 µM [rising, partial curve, poor fit]
COC(=O)C(O)(c1ccc(NC(=S)NC(=O)c2ccc(Cl)cc2Cl)c(C)c1)C(F)(F)F (configuration not stated)	-4.08		0.58 µM [rising, single point]

Structures above containing a thiophene ring, fused or not:
SMILES	cell number change [%]	AC50 [1]	AC50 [2]
CCN(CC)c1ccc(/C=N/c2sc3c(c2C#N)C2CCN3CC2)c(O)c1	-89	23.1 µM [falling, partial curve]	4.61 µM [falling, full curve]
CCn1c(O)c(C=NCc2cccs2)c(=O)[nH]c1=O	-24.6	0.82 µM [falling, full curve, poor fit]	6.51 µM [falling, partial curve]
